Shown are survivors of the treated group in tumour-free mice. Survivors were counted at the toxicity check, usually on the fifth day, unless a day is given; later deaths do not show. Schedule codes are those of the source, read here as Q, the interval in days (D) or hours (H), X, the number of doses.
Test system: CD2F1 mice, nontumored, toxicity/survival
Experiment: NCI In Vivo Anticancer Drug Screen. Data for tumor model Nontumored Animals (Toxicity Test) in CD2F1 (CDF1) mice
[1] = dose: 1.0 mg/kg/injection, schedule: Q01DX009 (ip), vehicle: saline
[2] = dose: 1.0 mg/kg/injection, schedule: Q04DX003 (ip), vehicle: saline
[3] = dose: 2.0 mg/kg/injection, schedule: Q01DX009 (ip), vehicle: saline
[4] = dose: 2.0 mg/kg/injection, schedule: Q04DX003 (ip), vehicle: saline
[5] = dose: 1.0 mg/kg/injection, schedule: Q01DX001 (ip), vehicle: other
[6] = dose: 10.0 mg/kg/injection, schedule: Q01DX001 (ip), vehicle: other
[7] = dose: 100.0 mg/kg/injection, schedule: Q01DX001 (ip), vehicle: other

Structure (SMILES): C[C@]12CC[C@H](OC(=O)Cc3ccc(N(CCCl)CCCl)cc3)CC1=CC[C@@H]1[C@@H]2CC[C@]2(C)C(=O)CC[C@@H]12
- survivor count (dose: 16.0 mg/kg/injection, schedule: Q03HX024 (ip), vehicle: saline): 8 of 8
- survivor count (dose: 32.0 mg/kg/injection, schedule: Q03HX008 (ip), vehicle: saline): 8 of 8
- survivor count (dose: 32.0 mg/kg/injection, schedule: Q03HX016 (ip), vehicle: saline): 8 of 8
- survivor count (dose: 32.0 mg/kg/injection, schedule: Q03HX024 (ip), vehicle: saline): 8 of 8
- survivor count (dose: 64.0 mg/kg/injection, schedule: Q01DX009 (ip), vehicle: saline): 8 of 8
- survivor count (dose: 64.0 mg/kg/injection, schedule: Q01DX009 (sc), vehicle: saline): 8 of 8
- survivor count (dose: 64.0 mg/kg/injection, schedule: Q03HX008 (ip), vehicle: saline): 8 of 8
- survivor count (dose: 64.0 mg/kg/injection, schedule: Q03HX016 (ip), vehicle: saline): 8 of 8
- survivor count (dose: 64.0 mg/kg/injection, schedule: Q03HX024 (ip), vehicle: saline): 8 of 8
- survivor count (dose: 128.0 mg/kg/injection, schedule: Q01DX009 (ip), vehicle: saline): 8 of 8
- survivor count (dose: 128.0 mg/kg/injection, schedule: Q01DX009 (sc), vehicle: saline): 8 of 8
- survivor count (dose: 128.0 mg/kg/injection, schedule: Q03HX008 (ip), vehicle: saline): 8 of 8
- survivor count (dose: 128.0 mg/kg/injection, schedule: Q03HX016 (ip), vehicle: saline): 8 of 8
- survivor count (dose: 128.0 mg/kg/injection, schedule: Q03HX024 (ip), vehicle: saline): 7 of 8
- survivor count (dose: 128.0 mg/kg/injection, schedule: Q04DX003 (ip), vehicle: saline): 8 of 8
- survivor count (dose: 256.0 mg/kg/injection, schedule: Q01DX001 (ip), vehicle: saline): 8 of 8
- survivor count (dose: 256.0 mg/kg/injection, schedule: Q01DX001 (sc), vehicle: saline): 8 of 8
- survivor count (dose: 256.0 mg/kg/injection, schedule: Q01DX009 (ip), vehicle: saline): 8 of 8
- survivor count (dose: 256.0 mg/kg/injection, schedule: Q01DX009 (oral), vehicle: saline): 8 of 8
- survivor count (dose: 256.0 mg/kg/injection, schedule: Q01DX009 (sc), vehicle: saline): 8 of 8
- survivor count (dose: 256.0 mg/kg/injection, schedule: Q03HX008 (ip), vehicle: saline): 8 of 8
- survivor count (dose: 256.0 mg/kg/injection, schedule: Q03HX016 (ip), vehicle: saline): 8 of 8
- survivor count (dose: 256.0 mg/kg/injection, schedule: Q04DX003 (ip), vehicle: saline): 8 of 8
- survivor count (dose: 256.0 mg/kg/injection, schedule: Q08DX002 (ip), vehicle: saline): 8 of 8
- survivor count (dose: 512.0 mg/kg/injection, schedule: Q01DX001 (ip), vehicle: saline): 8 of 8
- survivor count (dose: 512.0 mg/kg/injection, schedule: Q01DX001 (sc), vehicle: saline): 8 of 8
- survivor count (dose: 512.0 mg/kg/injection, schedule: Q01DX009 (ip), vehicle: saline): 8 of 8
- survivor count (dose: 512.0 mg/kg/injection, schedule: Q01DX009 (oral), vehicle: saline): 8 of 8
- survivor count (dose: 512.0 mg/kg/injection, schedule: Q01DX009 (sc), vehicle: saline): 8 of 8
- survivor count (dose: 512.0 mg/kg/injection, schedule: Q04DX003 (ip), vehicle: saline): 8 of 8
- survivor count (dose: 512.0 mg/kg/injection, schedule: Q08DX002 (ip), vehicle: saline): 8 of 8
- survivor count (dose: 1024.0 mg/kg/injection, schedule: Q01DX001 (ip), vehicle: saline): 8 of 8
- survivor count (dose: 1024.0 mg/kg/injection, schedule: Q01DX001 (sc), vehicle: saline): 8 of 8
- survivor count (dose: 1024.0 mg/kg/injection, schedule: Q01DX009 (oral), vehicle: saline): 8 of 8
- survivor count (dose: 1024.0 mg/kg/injection, schedule: Q04DX003 (ip), vehicle: saline): 7 of 8
- survivor count (dose: 1024.0 mg/kg/injection, schedule: Q08DX002 (ip), vehicle: saline): 8 of 8
- survivor count (dose: 2048.0 mg/kg/injection, schedule: Q01DX001 (ip), vehicle: saline): 8 of 8
- survivor count (dose: 2048.0 mg/kg/injection, schedule: Q01DX001 (sc), vehicle: saline): 8 of 8
- survivor count (dose: 2048.0 mg/kg/injection, schedule: Q01DX009 (oral), vehicle: saline): 8 of 8
- survivor count (dose: 2048.0 mg/kg/injection, schedule: Q08DX002 (ip), vehicle: saline): 8 of 8

Structure (SMILES): Cc1ncc([N+](=O)[O-])n1CCO
- survivor count (dose: 62.5 mg/kg/injection, schedule: Q01DX005 (ip), vehicle: saline with Tween-80): 3 of 3
- survivor count (dose: 125.0 mg/kg/injection, schedule: Q01DX005 (ip), vehicle: saline with Tween-80): 3 of 3
- survivor count (dose: 250.0 mg/kg/injection, schedule: Q01DX001 (ip), vehicle: saline with Tween-80): 3 of 3
- survivor count (dose: 250.0 mg/kg/injection, schedule: Q01DX005 (ip), vehicle: saline with Tween-80): 3 of 3
- survivor count (dose: 500.0 mg/kg/injection, schedule: Q01DX001 (ip), vehicle: saline with Tween-80): 3 of 3
- survivor count (dose: 500.0 mg/kg/injection, schedule: Q01DX005 (ip), vehicle: saline with Tween-80): 3 of 3
- survivor count (dose: 1000.0 mg/kg/injection, schedule: Q01DX001 (ip), vehicle: saline with Tween-80): 3 of 3
- survivor count (dose: 1000.0 mg/kg/injection, schedule: Q01DX005 (ip), vehicle: saline with Tween-80): 3 of 3

Structure (SMILES): O=C1C=CN(C2OC(CO)C(O)C2O)C(=O)C1 (stereo not given)
- survivor count (dose: 12.5 mg/kg/injection, schedule: Q01DX009 (ip), vehicle: saline): 4 of 4
- survivor count (dose: 25.0 mg/kg/injection, schedule: Q01DX009 (ip), vehicle: saline): 4 of 4
- survivor count (dose: 50.0 mg/kg/injection, schedule: Q01DX009 (ip), vehicle: saline): 4 of 4
- survivor count (dose: 75.0 mg/kg/injection, schedule: Q01DX009 (ip), vehicle: saline): 4 of 4
- survivor count (dose: 100.0 mg/kg/injection, schedule: Q01DX009 (ip), vehicle: saline): 4 of 4

Structure (SMILES): Nc1ncnc2c1ccn2C1OC2COP(=O)(O)OC2C1O (stereo not given)
- survivor count (dose: 0.13 mg/kg/injection, schedule: Q03HX024 (ip), vehicle: saline): 8 of 8
- survivor count (dose: 0.25 mg/kg/injection, schedule: Q03HX024 (ip), vehicle: saline): 8 of 8
- survivor count (dose: 0.5 mg/kg/injection, schedule: Q03HX024 (ip), vehicle: saline): 8 of 8
- survivor count [1]: 8 of 8
- survivor count (dose: 1.0 mg/kg/injection, schedule: Q03HX024 (ip), vehicle: saline): 8 of 8
- survivor count [2]: 8 of 8
- survivor count (dose: 2.0 mg/kg/injection, schedule: Q01DX001 (ip), vehicle: saline): 8 of 8
- survivor count [3]: 8 of 8
- survivor count [4]: 8 of 8
- survivor count (dose: 4.0 mg/kg/injection, schedule: Q01DX001 (ip), vehicle: saline): 8 of 8
- survivor count (dose: 4.0 mg/kg/injection, schedule: Q01DX009 (ip), vehicle: saline): 8 of 8
- survivor count (dose: 4.0 mg/kg/injection, schedule: Q04DX003 (ip), vehicle: saline): 8 of 8
- survivor count (dose: 8.0 mg/kg/injection, schedule: Q01DX001 (ip), vehicle: saline): 8 of 8
- survivor count (dose: 8.0 mg/kg/injection, schedule: Q01DX009 (ip), vehicle: saline): 8 of 8
- survivor count (dose: 8.0 mg/kg/injection, schedule: Q04DX003 (ip), vehicle: saline): 8 of 8
- survivor count (dose: 16.0 mg/kg/injection, schedule: Q01DX001 (ip), vehicle: saline): 8 of 8

Structure (SMILES): CC(=O)Nc1ncc2ccccc2c1-c1ccc(NC(=O)CCN(CCCl)CCCl)cc1
- survivor count [5]: 2 of 2
- survivor count [6]: 2 of 2
- survivor count [7]: 0 of 2

Structure (SMILES): CC(=O)Nc1ncc2ccccc2c1-c1ccc(N(CCO)CCO)cc1
- survivor count (dose: 1.0 mg/kg/injection, schedule: Q01DX001 (ip), vehicle: DMSO): 2 of 2
- survivor count (dose: 10.0 mg/kg/injection, schedule: Q01DX001 (ip), vehicle: DMSO): 2 of 2
- survivor count (dose: 100.0 mg/kg/injection, schedule: Q01DX001 (ip), vehicle: DMSO): 2 of 2

Structure (SMILES): OC(C1CO1)C(O)C1CO1 (stereo not given)
- survivor count [1]: 8 of 8
- survivor count [2]: 8 of 8
- survivor count (dose: 1.4 mg/kg/injection, schedule: Q01DX009 (ip), vehicle: saline): 8 of 8
- survivor count (dose: 1.4 mg/kg/injection, schedule: Q04DX003 (ip), vehicle: saline): 8 of 8
- survivor count [3]: 8 of 8
- survivor count [4]: 8 of 8
- survivor count (dose: 3.0 mg/kg/injection, schedule: Q01DX009 (ip), vehicle: saline): 8 of 8
- survivor count (dose: 3.0 mg/kg/injection, schedule: Q04DX003 (ip), vehicle: saline): 8 of 8
- survivor count (dose: 4.6 mg/kg/injection, schedule: Q01DX009 (ip), vehicle: saline): 8 of 8
- survivor count (dose: 4.6 mg/kg/injection, schedule: Q04DX003 (ip), vehicle: saline): 8 of 8
- survivor count (dose: 7.0 mg/kg/injection, schedule: Q01DX009 (ip), vehicle: saline): 8 of 8
- survivor count (dose: 7.0 mg/kg/injection, schedule: Q04DX003 (ip), vehicle: saline): 8 of 8
- survivor count (dose: 10.0 mg/kg/injection, schedule: Q01DX001 (ip), vehicle: saline): 10 of 10
- survivor count (dose: 10.6 mg/kg/injection, schedule: Q01DX009 (ip), vehicle: saline): 8 of 8
- survivor count (dose: 10.6 mg/kg/injection, schedule: Q04DX003 (ip), vehicle: saline): 8 of 8
- survivor count (dose: 12.5 mg/kg/injection, schedule: Q01DX001 (ip), vehicle: saline): 10 of 10
- survivor count (dose: 15.0 mg/kg/injection, schedule: Q01DX001 (ip), vehicle: saline): 10 of 10
- survivor count (dose: 16.0 mg/kg/injection, schedule: Q01DX009 (ip), vehicle: saline): 8 of 8
- survivor count (dose: 16.0 mg/kg/injection, schedule: Q04DX003 (ip), vehicle: saline): 8 of 8

Structure (SMILES): COc1ccc2c(c1O)-c1cccc3c1[C@@H](C2)N(CCCl)CC3
- survivor count [5]: 2 of 2
- survivor count [6]: 2 of 2
- survivor count [7]: 2 of 2

Structure (SMILES): O=C1OC(C(O)CO)C(O)=C1O (stereo not given)
- survivor count (dose: 800.0 mg/kg/injection, schedule: Q01DX009 (ip), vehicle: saline): 4 of 4
- survivor count (dose: 1200.0 mg/kg/injection, schedule: Q01DX009 (ip), vehicle: saline): 4 of 4
- survivor count (dose: 1600.0 mg/kg/injection, schedule: Q01DX009 (ip), vehicle: saline): 4 of 4

Reference: PubChem BioAssay AID188 (DTP/NCI, 2004)
